Data taken from PMC10937267.
No constants are given. Whether binding was seen depends on the method and setting. In cells and extracts the contact can be indirect. Some results given as binding are weak or reduced against the parent protein; the word gives no strength. For some assays here: Where a sequence is shown, tags or fusion partners need not be part of it.

Assays:
[1] = biological target: T1, Keratin 80 (human (endogenous in A549)) (UniProt Q6KB66); test: co-IP; endogenous proteins in A549 lysate; primary antibody overnight, protein A/G magnetic beads 2 hours, Western blot
T1 sequence: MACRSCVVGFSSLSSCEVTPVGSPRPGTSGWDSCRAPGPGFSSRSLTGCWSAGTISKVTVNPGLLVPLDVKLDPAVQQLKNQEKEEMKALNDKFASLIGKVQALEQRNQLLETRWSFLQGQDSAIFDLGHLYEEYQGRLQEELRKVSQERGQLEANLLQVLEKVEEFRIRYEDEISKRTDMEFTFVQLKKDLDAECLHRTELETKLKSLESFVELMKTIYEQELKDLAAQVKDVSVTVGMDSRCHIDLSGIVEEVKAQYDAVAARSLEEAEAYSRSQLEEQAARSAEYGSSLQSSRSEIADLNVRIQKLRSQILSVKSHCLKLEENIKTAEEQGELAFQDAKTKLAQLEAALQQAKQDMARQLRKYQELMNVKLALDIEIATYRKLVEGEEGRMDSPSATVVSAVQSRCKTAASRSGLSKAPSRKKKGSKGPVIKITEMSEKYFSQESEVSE

[2] = biological target: T2, KRT80 (human)-3×HA (human) (UniProt Q6KB66); test: co-IP; reciprocal, exogenous KRT80-3×HA and VCP-3×Myc co-transfected in 293T cells; primary antibody overnight, protein A/G magnetic beads 2 hours, Western blot
T2 sequence: T1 sequence

binding [1] | binding [2] | Substance
binds | – | Valosin-containing protein (from UniProt P55072 1-806)
– | binds | VCP (human)-3×Myc (from UniProt P55072 1-806)
